Source: the supplement of paper PMC12823440, “Inhibitors supercharge kinase turnover through native proteolytic circuits” (Nature, 2025)
Structures can show the parent of a compound that is named as a salt. The list shows a part of the results. The calls rarely recur for the same compound in another form.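 Kinases, fused to nanoluciferase, were expressed in K562 cells; luminescence was measured every 4 h from 2 to 18 h as percent of control (DMSO = 100%, positive control = 0%). A time point is decreased if signal falls significantly (2 sigma). Hits were called by the authors by a rule that is not shown; the count of time points alone does not decide it.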

Chains of the proteins cited; added tags and fusions are not shown. Lines headed by an entry give the natural chain unless they say otherwise; changes in a name come on top.
UniProt Q9BUB5: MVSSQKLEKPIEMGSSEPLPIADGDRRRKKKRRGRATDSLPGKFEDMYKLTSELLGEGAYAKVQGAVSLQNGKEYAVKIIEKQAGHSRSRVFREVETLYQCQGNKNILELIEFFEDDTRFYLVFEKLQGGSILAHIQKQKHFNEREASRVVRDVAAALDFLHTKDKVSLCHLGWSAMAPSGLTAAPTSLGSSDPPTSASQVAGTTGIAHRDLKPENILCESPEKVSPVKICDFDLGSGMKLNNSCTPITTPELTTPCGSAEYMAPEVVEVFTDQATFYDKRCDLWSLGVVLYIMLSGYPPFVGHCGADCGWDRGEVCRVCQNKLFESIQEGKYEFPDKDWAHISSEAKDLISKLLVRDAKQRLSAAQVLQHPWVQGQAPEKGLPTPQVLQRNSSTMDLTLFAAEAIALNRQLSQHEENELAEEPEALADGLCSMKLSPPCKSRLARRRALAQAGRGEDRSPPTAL
UniProt Q16620, whole entry, looked up: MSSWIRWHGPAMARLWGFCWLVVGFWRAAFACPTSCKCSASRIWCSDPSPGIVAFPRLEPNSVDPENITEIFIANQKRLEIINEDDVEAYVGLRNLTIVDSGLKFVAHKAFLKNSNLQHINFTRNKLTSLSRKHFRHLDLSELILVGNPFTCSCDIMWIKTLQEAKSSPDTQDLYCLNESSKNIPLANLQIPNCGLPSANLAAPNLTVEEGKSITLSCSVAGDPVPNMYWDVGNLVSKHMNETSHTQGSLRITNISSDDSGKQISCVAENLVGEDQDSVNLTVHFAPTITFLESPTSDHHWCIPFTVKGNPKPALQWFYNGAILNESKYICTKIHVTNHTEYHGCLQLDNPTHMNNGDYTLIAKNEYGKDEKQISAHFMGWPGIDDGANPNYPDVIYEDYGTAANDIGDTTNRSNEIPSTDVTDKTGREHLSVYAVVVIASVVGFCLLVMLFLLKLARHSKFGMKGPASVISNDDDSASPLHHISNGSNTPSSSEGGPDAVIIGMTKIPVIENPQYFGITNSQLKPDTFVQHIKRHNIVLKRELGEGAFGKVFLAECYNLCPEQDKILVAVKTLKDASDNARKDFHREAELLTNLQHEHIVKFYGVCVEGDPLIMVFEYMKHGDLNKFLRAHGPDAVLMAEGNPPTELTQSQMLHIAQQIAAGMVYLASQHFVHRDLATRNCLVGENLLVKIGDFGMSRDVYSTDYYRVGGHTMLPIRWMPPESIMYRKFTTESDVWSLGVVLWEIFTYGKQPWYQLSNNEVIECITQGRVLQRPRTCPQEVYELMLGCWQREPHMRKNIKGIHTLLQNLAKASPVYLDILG

Each molecule was assayed against MKNK1 (UniProt Q9BUB5) (assay: kinase-Nluc reporter destabilization hit call (1 = scored as downregulated) (binary); higher = compound decreases kinase abundance). Conditions: K562; 2-18 h.

kinase-Nluc reporter destabilization hit call, inactive:
COc1ccc([C@@H]2CC(=O)c3c(O)cc(O)cc3O2)cc1O [Hesperetin] (10 µM) 0, N#Cc1c(-c2ccccc2)cc(-c2cc(Br)ccc2O)[nH]c1=O (10 µM) 0, Cc1c(CN2CCN(C(=O)[C@H](C)O)CC2)sc2c(N3CCOCC3)nc(-c3cnc(N)nc3)nc12 [Apitolisib] (10 µM) 0, NC1(Cc2ccc(Cl)cc2)CCN(c2ncnc3[nH]ccc23)CC1 (10 µM) 0, O=C(/C=C/c1ccc(O)c(O)c1)c1ccc(O[C@@H]2O[C@H](CO)[C@@H](O)[C@H](O)[C@H]2O)c(O)c1O [Marein] (10 µM) 0, CN(CC(=O)N(Cc1ccc(C2CCCCC2)cc1)c1ccc(C(=O)O)cc1)S(=O)(=O)c1c(F)c(F)c(F)c(F)c1F (2.5 µM) 0, CC(C)NC(=O)N1CC[C@H](NC2=Nc3cc(F)ccc3N(CC(F)F)c3ccc(Cl)cc32)C1 (10 µM) 0

The molecules below were run against NTRK2 (UniProt Q16620) in the same assay as above. Conditions: K562; 2-18 h.

kinase-Nluc reporter destabilization hit call, inactive:
Cn1cc(Nc2nccc(N3C[C@H]4CC[C@@H](C3)N4C(=O)[C@@H]3CC3(F)F)n2)cn1 (10 µM) 0, CC(C)=CC(=O)CCC(=O)N1CCN(Cc2cc3nc(-c4cccc5[nH]ncc45)nc(N4CCOCC4)c3s2)CC1 (10 µM) 0, CN(C)CCN(Cc1ccc(Cl)cc1)c1ccccn1 [Chloropyramine hydrochloride] (10 µM) 0, COc1cc([N+](=O)[O-])ccc1S(=O)(=O)N1C[C@@H](CN2CCN(c3ccccn3)CC2)[C@H](c2cccc(F)c2)C1 (relative stereo) (10 µM) 0, Cc1noc(C)c1-c1ccc(-c2cc(C(N)=O)c(NC(N)=O)s2)c(O[C@H]2CCNC2)c1 (10 µM) 0, CC(C)(C)NC(=O)c1cncn1C1CCN(c2ccc(-c3nnc(C(F)(F)F)o3)cn2)CC1 (10 µM) 0, COc1cccc(-n2c(=O)[nH]c3cc(Cl)n(-c4ccc(-c5cccc(OC)c5O)cc4)c3c2=O)c1 (2.5 µM) 0, O=C(Nc1cccnc1)c1cc(C(=O)c2c(F)cccc2Br)c[nH]1 (10 µM) 0, O=C(Nc1cc(Oc2cc(F)c(NC(=O)C3(C(=O)Nc4ccc(F)cc4)CC3)cc2F)ccn1)C1CC1 [Altiratinib] (10 µM) 0, O=C1NC(=O)C(=Cc2ccc(-c3ccc(F)cc3)o2)S1 (stereo in doubt) (10 µM) 0, O=C(NC(NC(=S)Nc1ccc(F)c([N+](=O)[O-])c1)C(Cl)(Cl)Cl)C(c1ccccc1)c1ccccc1 (configuration not stated) (10 µM) 0, Nc1ncnc2c1ncn2[C@@H]1O[C@H](CO)C[C@H]1O [Cordycepin] (10 µM) 0, CC(C)(NS(=O)(=O)c1ccc2c(Cl)cnc(N=C(N)N)c2c1)C(=O)O (10 µM) 0, COc1cc2ncnc(Nc3cccc(Cl)c3)c2cc1OC (10 µM) 0, CCOc1ccc(C(=O)Nc2ncc([N+](=O)[O-])s2)cc1 (10 µM) 0, CC(C)CN[C@H]1CS(=O)(=O)C[C@@H]1S(=O)(=O)c1ccc(Cl)cc1 (10 µM) 0, CCn1c(=O)c(-c2ccc(-c3cncs3)cc2Cl)cc2cnc(Nc3ccc(N4CCN(C)CC4)cc3)nc21 (2.5 µM) 0, C[C@]1(O)CCC[C@@H]1n1c(=O)c(C(F)F)cc2cnc(NC3CCN(S(C)(=O)=O)CC3)nc21 (10 µM) 0, COc1c(NC(=O)C(=O)c2ccc(OCCN3CCOCC3)c3ccccc23)cc(C(C)(C)C)cc1NS(C)(=O)=O (2.5 µM) 0, COc1cc(S(C)(=O)=O)ccc1Nc1nc2ccc(-c3ccc(NC(=O)[C@H](C)c4ccc(F)cc4)cc3)cn2n1 [Empesertib] (10 µM) 0, Nc1cc(Nc2ccc(S(N)(=O)=O)cc2)ncn1 (10 µM) 0, O=C(O)c1cc(O)ccc1O [2,5-Dihydroxybenzoic acid] (10 µM) 0, OCCNC1CCCc2c1[nH]c1ccc(-c3ccccc3)cc21 (configuration not stated) (2.5 µM) 0, CC(C)CC1(O)CCN(C(=O)c2ccc(NS(=O)(=O)c3cccc4nccnc34)cc2)CC1 (10 µM) 0, CNC(=O)c1ccc(-c2cnc3cnc(C(=O)N(C)c4ccc(Cl)cc4)cn23)cc1 (2.5 µM) 0
